Experimental data from PubChem BioAssay AID493014 (National Center for Advancing Translational Sciences (NCATS), 2011).
Screen size: about 340,000 compounds; about 170 (0.05%) were called active. The shares of active, inactive and inconclusive entries below differ from those in the screen. Calls come from the whole dose curve; as a rule, active = well fitted inhibition curve with a large enough effect in the signal ratio, with a control signal flat (not every such curve was filed as active); inconclusive = small, poorly fitted or top-dose-only effect, or effect the other way, or a change in a side signal; inactive = flat fitted curve, though single readings scatter; the % refers to the signal ratio. Potencies of inconclusive entries are doubtful fits and often do not repeat.

Test: qHTS Assay to Find Inhibitors of Chronic Active B-Cell Receptor Signaling;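 for activity change, negative = inhibition: plate controls were basal doxycycline-induced cells for no effect and cells given 10 µM MG132 for full effect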
Settings: ABC-DLBCL IkBa-CBG/CBR reporter, luminescence ratio (green luciferase fused to IkBa over red control in TMD8 lymphoma cells), 4 h; activity change, negative = inhibition: at 46.1 µM (top of the series) unless noted
In short: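 Cell line TMD8 (human ABC DLBCL), stably expressing tet-inducible CBG68-IkBa fusion and CBR; IMDM/0.5% FBS; cpd up to 46 uM; dox induction, 4 h, 37C/5% CO2; dual luminescence; green/red ratio; MG132 control.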
Potency is the fitted concentration of half-maximal effect.

| SMILES | activity change, negative = inhibition | Potency |
| --- | --- | --- |
| COc1ccccc1C(=O)N1CCN(c2cccc(C(F)(F)F)c2)CC1 | inactive: -16.8% | – |
| O=C(C[n+]1cc(Br)cc2ccccc21)c1ccc(Cl)cc1 | inactive: 0.148% | – |
| Cc1ccc(OCCSc2ncnc3nc[nH]c23)cc1 | – | inconclusive: 6.51 µM [rising, single point] |
| FC(F)(F)c1ccccc1/C=N/n1c(C2CCCCC2)n[nH]c1=S | inactive: 0.0604% | – |
| C=CCn1c(C)cc(C(=O)CN2NS(=O)(=O)c3ccccc3C2=O)c1C | – | inconclusive: 22.4 µM [falling, single point] |
| COc1cccc(-c2nnc(NC(=O)C(C)C)o2)c1 | – | inconclusive: 25.9 µM [falling, partial curve] |
| Cc1ccc(OCC(=O)Nn2c(C)nc3ccccc3c2=O)c(C(C)C)c1 | inconclusive: -19.1% | – |
| O=C(CSc1nncs1)Nc1nnc(-c2ccccc2)o1 | – | inconclusive: 25.1 µM [falling, single point] |
| Cc1ccc(-c2csc(N3CCN(c4cc5c(cc4Cl)nc(C)n5CCN4CCCCC4)CC3)n2)cc1 | inactive: 4.28% | – |
| CCN(CC)S(=O)(=O)c1ccc(N2CCN(S(=O)(=O)c3ccc4c(c3)OCCO4)CC2)nc1 | inconclusive: -7.65% | – |
| CCOC(=O)c1c(C)[nH]c(C)c1S(=O)(=O)N1c2ccccc2CC1C (stereo unspecified) | inactive: -1.35% | – |
| Cc1ccc(C(=O)C(C)OC(=O)c2cc3cc([N+](=O)[O-])ccc3oc2=O)cc1 (stereo unspecified) | inconclusive: 9.08% | – |
| C[C@@H]1CN(C(=O)c2nc3ccc(Cl)cn3c2CN2CCc3sccc3C2)C[C@H](C)O1 | inconclusive: 2.25% | – |
| CCCS(=O)(=O)c1c(S(=O)(=O)CCC)c2c(N)cccn2c1C(=O)c1ccc(OC)cc1 | – | inconclusive: 10 µM [falling, partial curve] |
| CC[C@@H]1Cc2cc(O)ccc2C2=C1c1ccc(O)cc1C[C@H]2CC | – | inconclusive: 18.4 µM [falling, partial curve] |
| Clc1ccc(Nc2ccc(Cl)nn2)cc1 | – | inconclusive: 8.91 µM [rising, partial curve, poor fit] |
| CCC(C)[C@H](NS(=O)(=O)c1ccc(C)cc1)C(=O)N1CCC(C(=O)N[C@H](C(=O)O)c2ccccc2)CC1 (stereo partly specified) | – | inconclusive: 6.31 µM [falling, single point] |
| CCn1c(=O)c(C(=O)Nc2ccccc2)c(O)c2ccccc21 | – | inconclusive: 0.355 µM [falling, full curve] |
| CCOC(=O)C(CCCOc1ccc(C(C)CC)cc1)C(=O)OCC (stereo unspecified) | inactive: -0.421% | – |
| COc1cc(OC)cc(C(=O)O/N=C(\N)c2ccccn2)c1 | – | inconclusive: 31.6 µM [falling, single point] |
| COc1cc(C#Cc2c(-c3cncn3C)n(C)c3ccc(-c4ccc(CN5CCOCC5)cc4)cc23)cc(OC)c1 | inconclusive: -0.877% | – |
| CSc1ccccc1NC(=O)CSc1n[nH]c(C)c1[N+](=O)[O-] | – | inconclusive: 12.6 µM [falling, partial curve, poor fit] |
| Cn1c(/C=C/N(Cc2ccccc2)c2ccccc2)c([N+](=O)[O-])c(=O)n(C)c1=O | inconclusive: 11.5% | – |
| COc1ccccc1NC(=O)CN1CCN(Cc2ccccc2)CC1 | inconclusive: -0.719% | – |
| COc1ccc(OC)c(CN2CCN(C(=O)CNC(=O)c3ccc(C(C)(C)C)cc3)CC2)c1 | inconclusive: -0.557% | – |
| COCCn1c(SCC(=O)N2CCCCC2)nc2ccccc2c1=O | inconclusive: 0.108% | – |

| SMILES | activity change, negative = inhibition | Potency |
| --- | --- | --- |
| Fc1ccccc1CSc1nnc(-c2ccccc2)o1 | inactive: -0.192% | – |
| CCC(=O)Nc1nc(CC(=O)Nc2ccccc2)cs1 | inactive: -9.71% | – |
| O=C(Nc1ccccc1C(=O)N/N=C/c1ccco1)c1ccc(F)cc1 | inconclusive: -14.3% | – |
| COc1ccccc1C(=O)N1c2ccccc2Sc2ccccc21 | inactive: -1.46% | – |
| O=C1NC(=S)/C(=C\c2ccc(-c3ccccc3Cl)o2)S1 | inconclusive: 11.7% | – |
| COc1ccccc1CNc1ncnc2c1cnn2-c1ccc(C)cc1 | inconclusive: 4.43% | – |
| CCCn1c(-c2cccc([N+](=O)[O-])c2)nc2c1c(=O)[nH]c(=O)n2Cc1ccccc1 | inconclusive: 6% | – |
| CC1CCCC(C)N1C(=O)COC(=O)c1ccc2ccccc2n1 (stereo unspecified) | inactive: 7.05% | – |
| CCCC1CC(CSC(=N)N)OC1=O (stereo unspecified) | inconclusive: -14.6% | – |
| O=C(CCc1nnc2ccc(N3CCCC3)nn12)Nc1ccc(F)cc1F | inconclusive: -2.91% | – |
| Cc1ccc(C)c(C2=NNC(=NCc3ccccc3)SC2)c1 | – | inconclusive: 10 µM [falling, partial curve] |
| CCOc1ccccc1CN1CCNC(=O)C1CC(=O)NCCC1=CCCCC1 (stereo unspecified) | inconclusive: -16.9% | – |
| OCCN1CCN(C2Cc3cc(Cl)ccc3Sc3ccc(Cl)cc32)CC1 (stereo unspecified) (tested in a mixture with another compound) | inconclusive: -15.6% | – |
| Cc1sc2nc3c(SC(C)C(=O)O)cc(C(=O)c4ccccc4O)cn3c(=O)c2c1C (stereo unspecified) | inconclusive: 0.922% | – |
| N#CCSc1nc(-c2ccccc2)cs1 | inconclusive: 4.75% | – |
| CCN1C(=O)[C@H]2[C@@H](c3ccc(C)cc3)N3C(=O)N(c4ccccc4)C(=O)[C@@]3(Cc3ccc(Cl)cc3)[C@H]2C1=O | inactive: 15.6% | – |
| O=C(COC(=O)c1ccccc1NCc1ccco1)Nc1ccc2c(c1)OCO2 | inconclusive: -3.14% | – |
| Cc1ccc(NC(=O)CSc2nc3ccccc3c(=O)n2CCCN2CCCCC2)cc1Cl | inactive: -15.9% | – |
| COc1ccc(/C=C/C(=O)OCC(=O)NC(C)CCc2ccccc2)cc1OC (stereo unspecified) | inconclusive: 4.35% | – |
| O=C(N/N=C/c1ccccc1)NC1CCCCC1 | inactive: -4.22% | – |
| Cc1ccc(C)c(N2CCN(S(=O)(=O)c3c(C)noc3/C=C/N(C)C)CC2)c1 | inactive: 1.69% | – |
| COC(=O)c1ccc(OC(C)C(=O)c2ccc(C)cc2)cc1 (stereo unspecified) | inconclusive: 2.03% | – |
| COc1ccc(-c2oc3ncnc(N)c3c2-c2ccccc2)cc1 | – | inconclusive: 1.64 µM [falling, full curve, poor fit] |
| O=C(c1cc2c(s1)CCCC2)N1CCN(C(=O)C2CCCO2)CC1 (stereo unspecified) | inconclusive: 12.3% | – |
| COc1ccc(-c2cc(-c3ccccc3)c(C#N)c(S(C)=O)n2)cc1 (stereo unspecified) | – | inconclusive: 0.092 µM [falling, partial curve, poor fit] |

Part of the list above, as tab-separated lines.
SMILES	activity change, negative = inhibition	Potency
CC1CCCC(C)N1C(=O)COC(=O)c1ccc2ccccc2n1 (stereo unspecified)	inactive: 7.05%	–
CCCC1CC(CSC(=N)N)OC1=O (stereo unspecified)	inconclusive: -14.6%	–
O=C(CCc1nnc2ccc(N3CCCC3)nn12)Nc1ccc(F)cc1F	inconclusive: -2.91%	–
Cc1ccc(C)c(C2=NNC(=NCc3ccccc3)SC2)c1	–	inconclusive: 10 µM [falling, partial curve]
CCOc1ccccc1CN1CCNC(=O)C1CC(=O)NCCC1=CCCCC1 (stereo unspecified)	inconclusive: -16.9%	–
OCCN1CCN(C2Cc3cc(Cl)ccc3Sc3ccc(Cl)cc32)CC1 (stereo unspecified) (tested in a mixture with another compound)	inconclusive: -15.6%	–
Cc1sc2nc3c(SC(C)C(=O)O)cc(C(=O)c4ccccc4O)cn3c(=O)c2c1C (stereo unspecified)	inconclusive: 0.922%	–
N#CCSc1nc(-c2ccccc2)cs1	inconclusive: 4.75%	–
CCN1C(=O)[C@H]2[C@@H](c3ccc(C)cc3)N3C(=O)N(c4ccccc4)C(=O)[C@@]3(Cc3ccc(Cl)cc3)[C@H]2C1=O	inactive: 15.6%	–
